From publication PMC7565527, “Cryo-EM Structure of Heterologous Protein Complex Loaded Thermotoga Maritima Encapsulin Capsid” (Biomolecules, 2020) come the findings set out here.

To fix the notation:
T1: His-GFP-IDM1 (His-sfGFP fused at the N-terminus of IDM1) (Arabidopsis thaliana) (UniProt F4IXE7)
T1 sequence: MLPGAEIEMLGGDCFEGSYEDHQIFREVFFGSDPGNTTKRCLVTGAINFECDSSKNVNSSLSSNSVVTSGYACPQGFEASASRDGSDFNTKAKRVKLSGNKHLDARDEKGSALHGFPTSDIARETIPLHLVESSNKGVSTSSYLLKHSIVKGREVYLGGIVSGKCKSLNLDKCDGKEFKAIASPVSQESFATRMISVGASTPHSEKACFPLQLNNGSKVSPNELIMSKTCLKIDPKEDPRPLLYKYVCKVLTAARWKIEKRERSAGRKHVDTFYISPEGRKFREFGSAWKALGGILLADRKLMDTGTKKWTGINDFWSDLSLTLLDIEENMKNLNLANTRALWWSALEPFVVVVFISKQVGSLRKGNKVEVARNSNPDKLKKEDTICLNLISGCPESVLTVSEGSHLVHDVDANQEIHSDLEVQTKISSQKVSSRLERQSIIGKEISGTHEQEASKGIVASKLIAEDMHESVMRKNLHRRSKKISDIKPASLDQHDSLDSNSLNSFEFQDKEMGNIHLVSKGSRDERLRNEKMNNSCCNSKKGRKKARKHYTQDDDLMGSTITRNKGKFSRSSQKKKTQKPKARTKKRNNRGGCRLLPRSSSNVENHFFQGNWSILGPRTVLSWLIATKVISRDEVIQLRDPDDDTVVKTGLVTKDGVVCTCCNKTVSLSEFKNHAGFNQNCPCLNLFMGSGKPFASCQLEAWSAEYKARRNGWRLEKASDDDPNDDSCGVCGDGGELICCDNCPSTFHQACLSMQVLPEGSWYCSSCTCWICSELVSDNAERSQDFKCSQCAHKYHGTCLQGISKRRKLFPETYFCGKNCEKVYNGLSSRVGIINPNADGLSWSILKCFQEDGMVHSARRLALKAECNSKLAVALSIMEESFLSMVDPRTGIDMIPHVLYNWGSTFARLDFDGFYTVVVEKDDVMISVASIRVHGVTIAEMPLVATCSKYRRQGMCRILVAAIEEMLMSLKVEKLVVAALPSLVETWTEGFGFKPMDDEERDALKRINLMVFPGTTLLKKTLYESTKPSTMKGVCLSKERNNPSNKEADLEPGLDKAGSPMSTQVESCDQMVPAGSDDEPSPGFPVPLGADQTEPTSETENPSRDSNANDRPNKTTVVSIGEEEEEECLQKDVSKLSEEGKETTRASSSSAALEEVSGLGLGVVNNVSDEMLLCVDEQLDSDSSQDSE

B1: IDM2 (protein, UniProt Q8RWL4 1-349)
chain: MSDTMPEIVSPLVAENSQEQEESVLISLDIEEDKLFLLHFIIGTYFGPDLRKQHHRPKQSAFQIQALKNVVVDELSGSLMKRAELERVYYHIIRNVDPSLVMKPKKLREYFNAKRNDSNRDYPLFVDLFPRKLHPETHVRHKFKFIRSIVFINDPDTSCMREECVARFKRLTGLDSFALSLSVDVTKSNGVVAANEVKVEIDESVEPVKEDNAGTCTSGEESDVAAKPEVKSEAHGGLMVGLMDIGECDDAYLFRVSLPGVKRDERYFSCEVEDNGKVLVRGVTTTGGKRVKRYSHVFEMQTRSLCPPGNFSVSFRLPGPVHPHEFSGNFGTDGILEGVVMKNLQKQTV
B2: MBD7, truncated version from Ser232 to the end of the C-terminus, with MBP at the N-terminus (domain or fragment, UniProt Q9FJF4 232-306)
chain: SVSMVHSERLPLLMNRNGIRFQSEVIDPNPPKKVKWVLTGSGGNMFTANVRGSNVSSLVKHTWSEAFVSLIEDRS
B3: IDM3 (protein, UniProt Q9SYQ0 1-463)
chain: MSLYSDGLSSDQYFLVNFIMSNYLGPDVYSDNPRCSSSQRLARGLPPYTLMHIGSSSLTVSQLQNLYYNVLRNAKSSLLLHPDMIYMYLKGYLPLEPSGKFPQFTHFFPTNLHPQKRYSPSHEIVKGIVVIDDPAVGFINKEELQRFRCLSRLDDLKIDRVTSLSPRVNLDESRETEQDCSRNGDATANGVVTNEDYNSSGELQETCKRKEGEDAVASCVISEPERLSGDIPESQGMKQDCSRNGESAFSGIVSDQDYYSFVKLPETCKRKNKEEEAVTGHAVSGTSKTPERFRETYKRRRFKNSSKKATNKNGETLMEREKTDKPIPFSSEMKESDAEPSVVTTGTASKETLGSSVGVVDIGVNKVAYFFQVALPGVRKDYGEFSCEIESDGKVILEGSTTRGEKNIKRHSRVFEMNIRKLCPPGPFKLCFNLPGPVDPRLFSPNFRSDGIFEGVIIRHKNS

These are yes or no findings as the source states them, for the method shown. Some results given as binding are weak or reduced against the parent protein; the word gives no strength. Tags and fused reporters may be left off the sequences shown.

The target in this assay is T1, His-GFP-IDM1 (His-sfGFP fused at the N-terminus of IDM1) (Arabidopsis thaliana). The assay is described as follows: co-purification (His-tag affinity, SDS-PAGE); IDM complex without encapsulin, coexpressed in insect cells, purified with the His-tag on the N-terminus of IDM1 (His-sfGFP-IDM1 as bait).
For B1, the binding result is reported as “binds”.
On to B2, for which the binding entry is given as “binds”.
With B3, the binding entry is “binds”.
